From paper PMC8348266, “Intrinsically disordered electronegative clusters improve stability and binding specificity of RNA-binding proteins”

Experiments:
SRSF3 RRM WT (human) = molecular target: T1, SRSF3 RRM WT (human) (UniProt P84103); test: fluorescence polarization; conditions: pH 5.5, KD only in figure, Nop15 FP: 10 nM RNA/DNA, 20 mM Tris-HCl pH 7.5, 0.02% Tween 20, 150 or 50 mM NaCl, SRSF3 FP: 10 mM MES pH 5.5, 50 mM Arg/Glu, 0.1 mM TCEP, recombinant protein, residues 1-84, protein details: N-terminal SUMO tag cleaved with Ulp1, label: 5' fluorescein
T1 sequence (looked up): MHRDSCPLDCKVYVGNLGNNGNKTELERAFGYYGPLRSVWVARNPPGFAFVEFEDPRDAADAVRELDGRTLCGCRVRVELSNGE

[1] = molecular target: T2, Nop15 WT (1xENC) (Saccharomyces cerevisiae) (UniProt P53927); test: fluorescence polarization; conditions: 50 mM NaCl, weak binding detectable, no plateau, Nop15 FP: 10 nM RNA/DNA, 20 mM Tris-HCl pH 7.5, 0.02% Tween 20, 150 or 50 mM NaCl, SRSF3 FP: 10 mM MES pH 5.5, 50 mM Arg/Glu, 0.1 mM TCEP, recombinant protein, residues 40-191, protein details: N-terminal SUMO tag (pSMT3) cleaved with Ulp1, label: 5' fluorescein
T2 sequence (looked up): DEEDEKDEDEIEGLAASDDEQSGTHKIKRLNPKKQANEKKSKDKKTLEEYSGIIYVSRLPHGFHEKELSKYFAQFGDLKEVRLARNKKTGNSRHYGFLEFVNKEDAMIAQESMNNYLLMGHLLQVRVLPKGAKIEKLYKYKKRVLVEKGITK

Row | Sequence | binding result (SRSF3 RRM WT (human)) | also measured
1 | ACAUC | binds | –
2 | CAUCA | binds | –
3 | AGAGAGAGA [nonspecific ssDNA] | – | Kd ([1]; single-stranded DNA): > 8 µM
4 | UUCAGAGCA [nonspecific ssRNA] | – | Kd [1]: > 8 µM
5 | CUUCA | binds | –
6 | UCAAC | binds | –

Protein sequences can lack the tags named with them. For part of these data: Construct, isoform or probe ends are uncertain for at least one entry. For part of these data: At least one verdict was read from the data and is not stated in words by the source.
